# The other results are listed elsewhere or left out.
# Amino acid sequences for entries named in this document (tags omitted).
# UniProt Q13838, whole entry, looked up: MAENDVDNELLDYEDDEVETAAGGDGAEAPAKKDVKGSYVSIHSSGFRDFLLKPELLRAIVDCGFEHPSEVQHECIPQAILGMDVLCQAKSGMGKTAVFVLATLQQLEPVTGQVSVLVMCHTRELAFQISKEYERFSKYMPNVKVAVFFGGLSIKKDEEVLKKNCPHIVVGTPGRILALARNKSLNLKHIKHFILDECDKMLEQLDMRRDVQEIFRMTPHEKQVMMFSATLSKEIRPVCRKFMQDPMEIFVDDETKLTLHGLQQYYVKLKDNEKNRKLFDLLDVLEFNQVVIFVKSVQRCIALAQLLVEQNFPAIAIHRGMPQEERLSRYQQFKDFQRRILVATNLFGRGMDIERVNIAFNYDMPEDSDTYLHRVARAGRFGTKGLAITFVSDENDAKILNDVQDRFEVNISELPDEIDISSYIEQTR
# Columns and labels:
# [1] = molecular target: DDX39B_Q13838_165_KNCPHIVVGTPGR (UniProt Q13838); test: probe-labelled cysteine peptide fold change vs DMSO (competition) (log2 fold change); higher = less target engagement (more negative = stronger competition); settings: THP-1, incubation time: 4 h
# [2] = molecular target: DDX39B_Q13838_165_NCPHIVVGTPGR (UniProt Q13838); test: as above; settings: THP-1, incubation time: 4 h
# 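Also: competitive chemoproteomic profiling in live THP-1 cells with an iodoacetamide desthiobiotin (IA-DTB) probe, comparing probe-labelled peptide intensities in compound-treated cells against DMSO-treated controls.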
smiles,measurement,setting,value
CC1Cc2ccccc2N1C(=O)C1CCCN(C(=O)CCl)C1 (mixture of isomers) [TRIM25 ligand 11 (diastereomer mixture)],probe-labelled cysteine peptide fold change,[1]; 10 µM,-0.0399
same,probe-labelled cysteine peptide fold change,[1]; 50 µM,-0.0377
same,probe-labelled cysteine peptide fold change,[2]; 10 µM,0.0109
same,probe-labelled cysteine peptide fold change,[2]; 50 µM,-0.0302

# — the supplement of paper PMC12067093, “Discovery and optimisation of a covalent ligand for TRIM25 and its application to targeted protein ubiquitination” (Chemical Science, 2025)
